In the supplement of paper PMC10849652:
Some of the results follow.

Amino acid sequences for entries named in this document (tags omitted). A change or cut given only in a name is not applied to a line headed by its entry.
UniProt O95613: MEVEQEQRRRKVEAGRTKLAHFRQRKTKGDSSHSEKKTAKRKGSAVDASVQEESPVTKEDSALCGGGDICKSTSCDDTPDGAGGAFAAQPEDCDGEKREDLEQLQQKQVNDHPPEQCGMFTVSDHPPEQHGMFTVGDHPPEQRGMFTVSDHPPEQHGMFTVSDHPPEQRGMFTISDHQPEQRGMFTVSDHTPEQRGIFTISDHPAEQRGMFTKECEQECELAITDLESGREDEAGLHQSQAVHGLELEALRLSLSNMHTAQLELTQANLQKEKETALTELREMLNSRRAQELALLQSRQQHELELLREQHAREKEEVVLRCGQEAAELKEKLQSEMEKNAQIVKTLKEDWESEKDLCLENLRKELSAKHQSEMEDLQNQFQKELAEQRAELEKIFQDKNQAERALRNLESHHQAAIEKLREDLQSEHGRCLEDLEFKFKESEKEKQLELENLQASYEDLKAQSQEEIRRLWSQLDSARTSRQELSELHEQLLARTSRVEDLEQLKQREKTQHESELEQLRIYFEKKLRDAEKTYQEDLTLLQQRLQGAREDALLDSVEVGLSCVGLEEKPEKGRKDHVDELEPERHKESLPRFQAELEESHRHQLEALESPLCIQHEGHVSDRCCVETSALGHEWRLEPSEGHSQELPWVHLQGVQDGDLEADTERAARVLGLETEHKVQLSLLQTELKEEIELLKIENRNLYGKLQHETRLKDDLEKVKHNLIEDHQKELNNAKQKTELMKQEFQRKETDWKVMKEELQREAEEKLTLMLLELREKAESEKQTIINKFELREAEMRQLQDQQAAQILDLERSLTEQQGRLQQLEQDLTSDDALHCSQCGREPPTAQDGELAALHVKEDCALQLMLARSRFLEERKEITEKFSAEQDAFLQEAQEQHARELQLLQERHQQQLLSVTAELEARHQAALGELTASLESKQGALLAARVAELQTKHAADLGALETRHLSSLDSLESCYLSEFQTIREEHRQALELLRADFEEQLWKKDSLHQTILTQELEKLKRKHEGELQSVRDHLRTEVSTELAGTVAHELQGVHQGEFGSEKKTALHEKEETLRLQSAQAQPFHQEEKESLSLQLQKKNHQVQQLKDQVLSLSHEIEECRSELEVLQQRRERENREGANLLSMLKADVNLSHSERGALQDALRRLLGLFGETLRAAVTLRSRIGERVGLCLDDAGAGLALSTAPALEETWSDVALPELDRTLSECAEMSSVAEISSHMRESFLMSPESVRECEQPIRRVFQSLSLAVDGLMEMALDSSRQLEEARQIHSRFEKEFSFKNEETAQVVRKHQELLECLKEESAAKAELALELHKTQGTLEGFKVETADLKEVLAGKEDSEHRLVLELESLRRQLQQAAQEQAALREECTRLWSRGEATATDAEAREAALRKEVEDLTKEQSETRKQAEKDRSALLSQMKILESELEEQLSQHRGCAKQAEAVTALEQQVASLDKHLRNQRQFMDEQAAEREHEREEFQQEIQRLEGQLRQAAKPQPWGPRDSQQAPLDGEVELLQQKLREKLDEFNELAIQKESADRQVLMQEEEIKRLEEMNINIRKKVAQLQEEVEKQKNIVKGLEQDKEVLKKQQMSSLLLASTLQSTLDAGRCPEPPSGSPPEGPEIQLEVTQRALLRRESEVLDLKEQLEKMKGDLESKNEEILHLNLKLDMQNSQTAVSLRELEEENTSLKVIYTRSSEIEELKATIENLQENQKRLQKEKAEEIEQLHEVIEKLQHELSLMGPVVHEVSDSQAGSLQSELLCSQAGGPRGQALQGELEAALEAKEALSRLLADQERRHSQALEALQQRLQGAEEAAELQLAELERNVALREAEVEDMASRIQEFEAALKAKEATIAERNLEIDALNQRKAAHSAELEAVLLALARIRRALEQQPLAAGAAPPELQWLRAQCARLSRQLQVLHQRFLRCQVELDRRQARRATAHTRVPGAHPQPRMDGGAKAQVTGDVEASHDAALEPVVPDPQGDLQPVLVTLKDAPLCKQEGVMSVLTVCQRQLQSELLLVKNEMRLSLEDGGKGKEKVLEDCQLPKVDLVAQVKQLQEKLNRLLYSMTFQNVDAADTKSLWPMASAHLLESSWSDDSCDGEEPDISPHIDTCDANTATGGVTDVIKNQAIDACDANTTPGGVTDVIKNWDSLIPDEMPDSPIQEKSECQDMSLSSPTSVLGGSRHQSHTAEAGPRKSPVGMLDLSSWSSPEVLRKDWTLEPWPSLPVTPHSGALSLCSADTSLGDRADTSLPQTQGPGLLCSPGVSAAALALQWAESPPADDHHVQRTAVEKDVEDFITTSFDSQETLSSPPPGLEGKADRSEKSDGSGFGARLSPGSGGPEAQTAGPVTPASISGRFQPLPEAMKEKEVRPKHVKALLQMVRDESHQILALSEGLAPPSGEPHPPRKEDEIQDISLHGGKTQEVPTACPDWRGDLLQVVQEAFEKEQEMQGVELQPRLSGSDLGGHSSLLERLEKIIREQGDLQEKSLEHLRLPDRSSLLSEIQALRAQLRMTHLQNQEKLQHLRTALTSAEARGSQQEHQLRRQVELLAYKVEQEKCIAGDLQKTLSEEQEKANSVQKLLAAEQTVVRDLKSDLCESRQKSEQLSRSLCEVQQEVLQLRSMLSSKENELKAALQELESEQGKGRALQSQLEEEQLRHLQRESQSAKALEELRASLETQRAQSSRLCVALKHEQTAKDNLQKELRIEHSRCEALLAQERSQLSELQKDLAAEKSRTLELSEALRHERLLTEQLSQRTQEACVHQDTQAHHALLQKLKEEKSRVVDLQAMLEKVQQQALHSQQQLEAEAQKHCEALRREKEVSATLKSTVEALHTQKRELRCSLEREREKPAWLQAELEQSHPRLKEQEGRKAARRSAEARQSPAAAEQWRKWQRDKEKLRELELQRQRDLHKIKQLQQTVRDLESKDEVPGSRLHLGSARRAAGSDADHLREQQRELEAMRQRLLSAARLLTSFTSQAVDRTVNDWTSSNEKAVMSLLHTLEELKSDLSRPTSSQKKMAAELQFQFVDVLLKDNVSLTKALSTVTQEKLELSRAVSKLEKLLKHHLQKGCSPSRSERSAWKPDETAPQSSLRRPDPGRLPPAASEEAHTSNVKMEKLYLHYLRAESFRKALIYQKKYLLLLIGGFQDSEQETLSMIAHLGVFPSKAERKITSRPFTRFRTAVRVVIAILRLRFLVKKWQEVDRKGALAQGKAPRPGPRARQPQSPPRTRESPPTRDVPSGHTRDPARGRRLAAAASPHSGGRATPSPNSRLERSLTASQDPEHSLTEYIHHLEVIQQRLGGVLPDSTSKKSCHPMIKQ
UniProt Q9NTI5: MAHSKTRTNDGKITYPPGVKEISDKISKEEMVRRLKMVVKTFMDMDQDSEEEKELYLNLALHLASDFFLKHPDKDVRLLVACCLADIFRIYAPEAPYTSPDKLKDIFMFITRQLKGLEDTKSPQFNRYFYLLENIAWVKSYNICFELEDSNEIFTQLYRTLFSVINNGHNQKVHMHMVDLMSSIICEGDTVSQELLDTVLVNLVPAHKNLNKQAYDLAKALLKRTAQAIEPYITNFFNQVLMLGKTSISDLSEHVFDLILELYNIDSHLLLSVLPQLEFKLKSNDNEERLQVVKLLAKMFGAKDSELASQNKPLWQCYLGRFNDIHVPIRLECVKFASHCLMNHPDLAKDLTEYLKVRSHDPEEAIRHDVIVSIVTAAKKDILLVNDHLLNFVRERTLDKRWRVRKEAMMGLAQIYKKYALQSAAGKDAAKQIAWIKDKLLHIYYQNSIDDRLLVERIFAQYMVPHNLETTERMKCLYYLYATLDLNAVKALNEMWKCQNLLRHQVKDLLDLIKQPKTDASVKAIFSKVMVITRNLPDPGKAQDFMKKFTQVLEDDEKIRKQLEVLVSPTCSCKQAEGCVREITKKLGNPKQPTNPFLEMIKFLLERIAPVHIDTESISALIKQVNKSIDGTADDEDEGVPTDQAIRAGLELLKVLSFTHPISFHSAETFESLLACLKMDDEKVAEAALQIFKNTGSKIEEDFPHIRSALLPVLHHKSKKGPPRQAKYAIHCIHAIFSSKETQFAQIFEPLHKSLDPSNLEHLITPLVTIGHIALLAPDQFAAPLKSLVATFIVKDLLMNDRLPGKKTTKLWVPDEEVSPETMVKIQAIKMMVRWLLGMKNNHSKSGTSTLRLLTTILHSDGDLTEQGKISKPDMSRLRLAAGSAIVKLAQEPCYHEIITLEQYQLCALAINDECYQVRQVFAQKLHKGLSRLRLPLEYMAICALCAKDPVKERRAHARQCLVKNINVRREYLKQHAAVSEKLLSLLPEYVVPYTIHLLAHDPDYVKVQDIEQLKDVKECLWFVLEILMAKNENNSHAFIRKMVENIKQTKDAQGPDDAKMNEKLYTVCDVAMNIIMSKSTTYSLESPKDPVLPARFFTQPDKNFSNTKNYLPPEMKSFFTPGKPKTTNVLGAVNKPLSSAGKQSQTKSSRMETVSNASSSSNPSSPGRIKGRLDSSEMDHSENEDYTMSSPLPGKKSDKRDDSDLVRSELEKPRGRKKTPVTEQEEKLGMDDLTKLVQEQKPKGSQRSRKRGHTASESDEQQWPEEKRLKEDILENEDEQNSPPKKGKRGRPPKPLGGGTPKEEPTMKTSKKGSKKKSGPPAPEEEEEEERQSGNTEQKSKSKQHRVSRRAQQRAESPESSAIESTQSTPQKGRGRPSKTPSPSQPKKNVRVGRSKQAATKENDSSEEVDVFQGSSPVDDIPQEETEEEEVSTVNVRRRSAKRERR
UniProt P35227: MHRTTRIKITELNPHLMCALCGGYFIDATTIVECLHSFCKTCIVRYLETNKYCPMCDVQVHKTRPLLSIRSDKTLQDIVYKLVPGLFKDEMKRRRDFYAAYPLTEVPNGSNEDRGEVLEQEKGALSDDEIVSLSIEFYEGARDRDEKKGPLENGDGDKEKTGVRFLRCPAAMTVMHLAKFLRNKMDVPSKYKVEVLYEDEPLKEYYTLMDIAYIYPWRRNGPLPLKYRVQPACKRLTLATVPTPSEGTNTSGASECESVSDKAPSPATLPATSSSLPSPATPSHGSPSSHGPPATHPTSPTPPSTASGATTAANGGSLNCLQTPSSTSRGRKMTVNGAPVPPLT
UniProt O15530: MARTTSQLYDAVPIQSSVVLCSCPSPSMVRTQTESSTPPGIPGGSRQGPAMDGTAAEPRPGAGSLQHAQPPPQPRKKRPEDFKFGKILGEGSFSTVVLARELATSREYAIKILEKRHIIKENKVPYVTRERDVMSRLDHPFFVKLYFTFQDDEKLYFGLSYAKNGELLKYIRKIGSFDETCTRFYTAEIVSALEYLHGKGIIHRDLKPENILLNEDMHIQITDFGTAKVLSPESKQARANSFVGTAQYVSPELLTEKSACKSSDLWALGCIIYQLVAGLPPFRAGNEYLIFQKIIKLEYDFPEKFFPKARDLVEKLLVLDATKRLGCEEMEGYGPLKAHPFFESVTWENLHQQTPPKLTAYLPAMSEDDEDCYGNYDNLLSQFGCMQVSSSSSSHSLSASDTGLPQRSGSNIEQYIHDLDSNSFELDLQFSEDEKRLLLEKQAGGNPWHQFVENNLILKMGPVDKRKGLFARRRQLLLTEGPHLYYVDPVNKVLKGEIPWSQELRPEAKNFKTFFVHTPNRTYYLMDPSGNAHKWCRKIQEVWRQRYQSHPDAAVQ
UniProt Q15121, whole entry, looked up: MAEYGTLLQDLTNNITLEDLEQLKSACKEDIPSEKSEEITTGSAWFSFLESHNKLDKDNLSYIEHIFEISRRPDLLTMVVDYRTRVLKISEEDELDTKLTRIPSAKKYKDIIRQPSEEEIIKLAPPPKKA
UniProt Q9H4Z3: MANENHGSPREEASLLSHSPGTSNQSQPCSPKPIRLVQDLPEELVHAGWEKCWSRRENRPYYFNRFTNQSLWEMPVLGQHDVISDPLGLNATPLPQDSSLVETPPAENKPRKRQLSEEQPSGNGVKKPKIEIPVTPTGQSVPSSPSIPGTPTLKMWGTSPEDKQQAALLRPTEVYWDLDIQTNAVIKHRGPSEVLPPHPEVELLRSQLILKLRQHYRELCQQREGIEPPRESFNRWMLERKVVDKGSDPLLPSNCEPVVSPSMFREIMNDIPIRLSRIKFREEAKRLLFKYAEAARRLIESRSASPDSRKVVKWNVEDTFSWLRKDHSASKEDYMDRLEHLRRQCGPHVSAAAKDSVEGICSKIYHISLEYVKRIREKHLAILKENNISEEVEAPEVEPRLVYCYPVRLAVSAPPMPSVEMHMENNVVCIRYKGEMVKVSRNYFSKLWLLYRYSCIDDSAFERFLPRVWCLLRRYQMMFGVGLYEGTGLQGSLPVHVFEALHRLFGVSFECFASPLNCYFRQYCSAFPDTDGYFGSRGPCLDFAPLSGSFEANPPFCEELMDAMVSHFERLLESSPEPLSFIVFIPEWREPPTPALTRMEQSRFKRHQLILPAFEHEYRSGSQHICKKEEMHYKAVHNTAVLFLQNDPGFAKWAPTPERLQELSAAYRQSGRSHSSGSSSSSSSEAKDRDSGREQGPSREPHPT

Assays:
Experiment in all cases: log2 fold change, soluble protein after heating vs DMSO (PISA); higher = thermal stabilisation; K562 cells, 10 uM, 30 min; active = over 0.2 and 3.5 SD of the protein, either way, in both replicates (recomputed)
[1] = compound: CC1=C2C(=CC=C1)N=C(N(C2=O)C3=CC=CC=C3C)CN4C=NC5=C(N=CN=C54)N
Method in brief: (§1)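 K562 cells (2×10^6 cells/mL) were treated with 10 μM compound for 30 min, and aliquots were heated for 3 min over 48°C-58°C. Pooled aliquots were extracted in PBS with 0.5% NP-40 at 4°C, and the supernatant after 21,000xg for 90 min was measured by TMTpro 16plex LC-MS/MS with channel sums equalised. Reported thermal stability, relative to control samples and from duplicates, is a log2 fold change.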

[2] = compound: C1=CC=C(C=C1)[C@H](COC2=CC3=C(C=C2)NC(=O)N3)NC(=O)C4=CC=CN(C4=O)CC5=CC(=C(C=C5)F)F
Method in brief: as §1

[3] = compound: Cc1sc2c(c1C)C(c1ccc(Cl)cc1)=N[C@@H](CC(=O)OC(C)(C)C)c1nnc(C)n1-2
Method in brief: as §1

[4] = compound: CC1=C(SC2=C1C(=N[C@H](C3=NN=C(N32)C)CC(=O)N)C4=CC=C(C=C4)Cl)C
Method in brief: as §1

[5] = compound: c1ccc([C@@H]2C[C@H]2NC2CCNCC2)cc1
Method in brief: as §1

Measured: log2 fold change

PALM (UniProt O75781)
inactive: [1] 0.137

PCNX1 (UniProt Q96RV3)
inactive: [2] 0.064 | [1] 0.103 | [3] -0.122

PCDH1 isoform 2 (UniProt Q08174)
inactive: [3] -0.072

PCBP2 isoform 3 (UniProt Q15366)
inactive: [2] -0.051 | [4] 0.016 | [1] 0.055 | [3] -0.029 | [5] 0.005

PAK1IP1 (UniProt Q9NWT1)
inactive: [2] 0.087 | [4] -0.282 | [1] -0.343 | [3] 0.273 | [5] 0.021

PAXBP1 (UniProt Q9Y5B6)
inactive: [2] 0.114 | [3] 0.031

PAN2 (UniProt Q504Q3)
inactive: [2] -0.298 | [1] 0.053

PCNT (UniProt O95613)
inactive: [2] 0.037 | [4] -0.067 | [1] 0.11 | [3] 0.064 | [5] 0.105

PDS5B (UniProt Q9NTI5)
inactive: [2] -0.153 | [4] 0.029 | [1] 0.169 | [3] 0.233 | [5] -0.011

PAF1 (UniProt Q8N7H5)
inactive: [4] -0.054 | [5] -0.006

PABPN1 (UniProt Q86U42)
inactive: [2] 0.077 | [4] -0.293 | [5] 0.118

PC (UniProt P11498)
inactive: [2] -0.012 | [4] 0.031 | [1] 0.111 | [3] 0.025 | [5] -0.021

PCMTD2 (UniProt Q9NV79)
inactive: [3] 0.023

PCYT1B (UniProt Q9Y5K3)
inactive: [2] -0.063 | [4] -0.003 | [1] 0.022 | [3] 0.042 | [5] 0.034

PDXP (UniProt B1AHD3)
inactive: [4] 0.029 | [1] -0.14 | [5] -0.285

PCGF2 (UniProt P35227)
inactive: [2] -0.046 | [4] 0.133 | [1] -0.015 | [3] 0.002 | [5] -0.05

PDPK1 (UniProt O15530)
inactive: [4] 0.065 | [1] 0.014 | [3] -0.038 | [5] -0.018

PCF11 (UniProt O94913)
inactive: [2] -0.319 | [4] -0.02 | [1] 0.068 | [5] 0.006

PDE4DIP (UniProt E9PS60)
inactive: [4] 0.013 | [1] -0.209 | [5] -0.069

PAFAH2 (UniProt Q99487)
inactive: [2] -0.191 | [4] 0.016 | [1] 0.066 | [3] -0.117 | [5] -0.141

PAFAH1B1 (UniProt I3L3N5)
inactive: [2] -0.077 | [4] 0.072 | [1] 0.192 | [5] 0.098

PCMT1 isoform 2 (UniProt P22061)
inactive: [2] -0.022 | [4] 0.067 | [1] 0.06 | [3] -0.023 | [5] -0.031

PCBD2 (UniProt Q9H0N5)
inactive: [2] 0.009 | [4] 0.026 | [1] -0.02 | [3] 0.018 | [5] 0.013

PCBP2 (UniProt F8VZX2)
inactive: [2] -0.1 | [4] -0.107 | [5] 0.019

PDCD2 (UniProt Q16342)
inactive: [2] -0.036 | [4] -0.075 | [3] 0.12 | [5] 0.077

Copied from the listing (2 entries):
PCBP2 (UniProt F8VZX2)
inactive: [2] -0.1 | [4] -0.107 | [5] 0.019

PDCD2 (UniProt Q16342)
inactive: [2] -0.036 | [4] -0.075 | [3] 0.12 | [5] 0.077

Following part

PAPSS1 (UniProt O43252)
inactive: [2] -0.012 | [4] 0.043 | [1] 0.009 | [3] -0.004 | [5] -0.057

PEA15 isoform 2 (UniProt Q15121)
inactive: [2] -0.014 | [4] 0.1 | [1] 0.116 | [3] -0.063 | [5] -0.015

PDCD4 (UniProt Q53EL6)
inactive: [2] -0.055 | [4] 0.002 | [1] 0.053 | [3] -0.167 | [5] -0.003

PCIF1 (UniProt Q9H4Z3)
inactive: [2] 0.024 | [1] 0.077 | [3] -0.063

PCID2 (UniProt Q5JVF3)
inactive: [2] -0.18 | [4] 0.057 | [1] 0.159 | [3] 0.033 | [5] -0.071

PDIA4, A0A499FI48
inactive: [1] -0.2 | [3] 0.036

PAGE2 (UniProt Q7Z2X7)
inactive: [2] -0.048 | [4] 0.086 | [1] -0.025 | [3] -0.021 | [5] -0.049
